# PMC7819943, “Rice protein-binding microarrays: a tool to detect cis-acting elements near promoter regions in rice”
# The other results are listed elsewhere or left out.
# Target: T1, OsSMF1 (Oryza sativa, UniProt Q6ZLB0 1-436)
# T1 sequence: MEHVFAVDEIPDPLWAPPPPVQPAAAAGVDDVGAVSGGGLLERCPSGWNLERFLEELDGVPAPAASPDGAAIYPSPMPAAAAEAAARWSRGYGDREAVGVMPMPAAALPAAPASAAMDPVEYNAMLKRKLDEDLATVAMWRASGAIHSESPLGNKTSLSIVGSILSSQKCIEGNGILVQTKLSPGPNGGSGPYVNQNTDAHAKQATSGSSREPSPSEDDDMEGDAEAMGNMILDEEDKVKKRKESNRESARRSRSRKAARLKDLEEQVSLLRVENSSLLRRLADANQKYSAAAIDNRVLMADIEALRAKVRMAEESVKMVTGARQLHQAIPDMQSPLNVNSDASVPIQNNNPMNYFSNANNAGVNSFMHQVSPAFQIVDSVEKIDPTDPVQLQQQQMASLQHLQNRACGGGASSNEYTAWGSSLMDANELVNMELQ
# Test: protein-binding microarray (RPBM); PBS, 2% BSA, 51.3 ng/ul salmon testes DNA, 50 uM zinc acetate, 200 nM TF, 25 C, 1 h; high values mean tight binding
# Conditions: protein: recombinant; tags: N-terminal polyhistidine and DsRed monomer fusion (pET32a); chain copies: 2; label: CyDye5-dUTP incorporated in the synthesized complementary strand; 3' TTTTT single-stranded linker to array surface; dsDNA, one strand shown
# Procedure, shortened: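 Transcription factors, each fused N-terminally to a polyhistidine tag and DsRed, were expressed in E. coli BL21-CodonPlus and purified on Ni–NTA. A custom Agilent array was made double-stranded by primer extension with Cy5-dUTP and blocked with 2% BSA. It was incubated with 200 nM protein in PBS, 2% BSA, salmon testes DNA and 50 µM zinc acetate at 25 °C for 1 h, then washed. The binding signal is per-feature fluorescence intensity (arbitrary units) read on an Axon 4000B scanner.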
row,Sequence,binding signal
1,CATTTGTGGCAGCAACCTATATATATTTTCAGTTTCTGACCGGAGTCACCTAGTGCAG,29600 fluorescence intensity (a.u.)
2,GCTCCGACGTGTAACTGTCACCGGGCCCAATAATTCGTGGCGGAGTCACCTAGTGCAG,5230 fluorescence intensity (a.u.)
3,GTGAGTTCGTGACTTGTTGCCTGGTGGCCCTGGTCACAGTCGGAGTCACCTAGTGCAG,4010 fluorescence intensity (a.u.)
4,CCAGTCCACCACATACTACAGTGTCAGCGTACGCGTCGTACGGAGTCACCTAGTGCAG,4590 fluorescence intensity (a.u.)
5,GAGGAAGCCGAACGGTTTTGCTACCCACACGACACGGAGGCGGAGTCACCTAGTGCAG,3720 fluorescence intensity (a.u.)
6,ATGTCTAATGCCATGTAAGTTTTGGAGGAAACCTAACCTGCGGAGTCACCTAGTGCAG,3660 fluorescence intensity (a.u.)
7,CACGCGCCTTTAGCTCGCCACCAGCGTGGCACGCGGGAGCCGGAGTCACCTAGTGCAG,5220 fluorescence intensity (a.u.)
8,CGTCCACATTTAATACTCTATGTATGTGTCCAAACATTTGCGGAGTCACCTAGTGCAG,5120 fluorescence intensity (a.u.)
9,CGTGACGCGCAGCTCCCTGCAGCCGACCTGGCCACCCACACGGAGTCACCTAGTGCAG,3500 fluorescence intensity (a.u.)
10,ACAGTCTAAAATGATACATATTTGTGACTCGAGGGAGTATCGGAGTCACCTAGTGCAG,4110 fluorescence intensity (a.u.)
11,ATGGTAATTGAATTCTGCCATGATACAAACAGAAAGAAACCGGAGTCACCTAGTGCAG,4760 fluorescence intensity (a.u.)
12,ACCCCATCCACCGTACACGTGTCCACATCTACGGCCCAGACGGAGTCACCTAGTGCAG,17200 fluorescence intensity (a.u.)
13,GCCGCACGAATCGTAAAGGCTTTCTCTGCTCCTCTTGCTCCGGAGTCACCTAGTGCAG,31000 fluorescence intensity (a.u.)
14,GCTCCTCCGCTCCTTGCGCCATCTCGCGGCTGAACAGGGGCGGAGTCACCTAGTGCAG,3400 fluorescence intensity (a.u.)
15,AAATGTAGCGTCAAGTAACACGTGTATTCACATTTACGATCGGAGTCACCTAGTGCAG,7750 fluorescence intensity (a.u.)
16,TGCTATGGGCCAACTTACACATCTTCACACATTGCTTGGTCGGAGTCACCTAGTGCAG,4380 fluorescence intensity (a.u.)
17,GTAAACTTCCATCATCAAACCAGCACACGTACATATTAGGCGGAGTCACCTAGTGCAG,3420 fluorescence intensity (a.u.)
18,GCGAACCCTCGATGAGCTGACACCCTCCTCATCCTCGCCGCGGAGTCACCTAGTGCAG,3560 fluorescence intensity (a.u.)
19,GTTGCGGGGTGGGTGGTGGCGTTGCGGGAGGAGGAGGGAGCGGAGTCACCTAGTGCAG,6560 fluorescence intensity (a.u.)
20,CTGTCATCGCCACTGTCATGCCATCATCGTCATTGTGCCTCGGAGTCACCTAGTGCAG,6280 fluorescence intensity (a.u.)
21,ATTCCTGGACGTGACAATATGAAACAGATCATGATTCATGCGGAGTCACCTAGTGCAG,3510 fluorescence intensity (a.u.)
22,GAGAAATGAACGTCCGAGATTCGTCCACGTCACTATGAGTCGGAGTCACCTAGTGCAG,26300 fluorescence intensity (a.u.)
23,GCAGTACCCCGTGTCGTCACCGCCGGCGGCGCCGACGCCACGGAGTCACCTAGTGCAG,4190 fluorescence intensity (a.u.)
24,TGCTGCGTAGGATTTGGTGTTCTCGCACTGGTTAGTTGCTCGGAGTCACCTAGTGCAG,4040 fluorescence intensity (a.u.)
25,CGTACGCCTCCTAGCTAGTTCGAGCATCCCACGTCGAGTCCGGAGTCACCTAGTGCAG,3300 fluorescence intensity (a.u.)
26,GTGTCGCGATCTGCGATGGTCGTCTCGTCCGCGACACCCCCGGAGTCACCTAGTGCAG,5860 fluorescence intensity (a.u.)
27,TTTGGTTTCCGGCCAAACATTGCCACGCCTAACTTAAGGCCGGAGTCACCTAGTGCAG,5170 fluorescence intensity (a.u.)

# Some of the entries above in another layout:
row	Sequence	binding signal
25	CGTACGCCTCCTAGCTAGTTCGAGCATCCCACGTCGAGTCCGGAGTCACCTAGTGCAG	3300 fluorescence intensity (a.u.)
26	GTGTCGCGATCTGCGATGGTCGTCTCGTCCGCGACACCCCCGGAGTCACCTAGTGCAG	5860 fluorescence intensity (a.u.)

# Fetched one by one from the list above (two):
row,Sequence,binding signal
5,GAGGAAGCCGAACGGTTTTGCTACCCACACGACACGGAGGCGGAGTCACCTAGTGCAG,3720 fluorescence intensity (a.u.)
11,ATGGTAATTGAATTCTGCCATGATACAAACAGAAAGAAACCGGAGTCACCTAGTGCAG,4760 fluorescence intensity (a.u.)

# (listing goes on)

row,Sequence,binding signal
1,GCGTCTTGTGTGACTCCTACCTGTCGCTGATCATGGTGATCGGAGTCACCTAGTGCAG,3470 fluorescence intensity (a.u.)
2,TGGGGCCGGGCCGTGCCGACGTGTGAGCACAAGTAGTGTTCGGAGTCACCTAGTGCAG,5210 fluorescence intensity (a.u.)
3,ATACTCACAAGACACGGTTTCTCTTGCCGCGTCTGCAGCACGGAGTCACCTAGTGCAG,3550 fluorescence intensity (a.u.)
4,TACGGACCAAGCTGACTCACCCCTAAACAAGTCTACCCCACGGAGTCACCTAGTGCAG,10200 fluorescence intensity (a.u.)
5,TTTACGTACACGTGTATATGTCATACTACCTCTATTTCAGCGGAGTCACCTAGTGCAG,13100 fluorescence intensity (a.u.)
6,TGCCCACACAATCCACTCATGACTATATCTATCTATCTATCGGAGTCACCTAGTGCAG,4090 fluorescence intensity (a.u.)
7,GTCCGGCGTGTGGGTGTACCAGAACTCGTCGTCGCCGTGGCGGAGTCACCTAGTGCAG,3550 fluorescence intensity (a.u.)
8,CAGAAAATATCAAGCACGCGTCATCACCAGCAAGTGACGGCGGAGTCACCTAGTGCAG,7240 fluorescence intensity (a.u.)
9,TGGGCCCTGCACTGACTCAGCCACCACGTCAACAAAACCGCGGAGTCACCTAGTGCAG,12800 fluorescence intensity (a.u.)
10,AGTTAGCAACTTCCATTTCTAAACAATGCGCTGGTCAGCACGGAGTCACCTAGTGCAG,3790 fluorescence intensity (a.u.)
11,ACTACCATGCAGTCTTTAACTTCTTCCCCAGAATACGTCACGGAGTCACCTAGTGCAG,4350 fluorescence intensity (a.u.)
12,GGCGGCGGCTGCGGCGATGGCGGGGCAGGAGCGGAGGACGCGGAGTCACCTAGTGCAG,3420 fluorescence intensity (a.u.)
13,ATACTAGTAATATGCCCGTGCTAACGCTACGTGTATGTTTCGGAGTCACCTAGTGCAG,4230 fluorescence intensity (a.u.)
14,AATTCCCATTGCGTGGACCGACGACGAAACGACCGTGTCCCGGAGTCACCTAGTGCAG,3240 fluorescence intensity (a.u.)
15,TTTGCGCATGTTCAAGAACAATCTGTGACTTGACAACAGACGGAGTCACCTAGTGCAG,3230 fluorescence intensity (a.u.)
16,TCAGGAGGGAGATAACGGTTGCCACGTGGAAGCTAGCCGCCGGAGTCACCTAGTGCAG,16900 fluorescence intensity (a.u.)
17,CAGTCTGTCTTGGTCTCTTTGTTCAGTCATGGTCTCTCTTCGGAGTCACCTAGTGCAG,3260 fluorescence intensity (a.u.)
18,CAACCCAAGGTTGTGCTGCCCCGTTTCCTTGTGTCAGAAACGGAGTCACCTAGTGCAG,3170 fluorescence intensity (a.u.)
19,ACGACAACGACGAGCTCTGGTCATGAACACGACCAAGTGACGGAGTCACCTAGTGCAG,3820 fluorescence intensity (a.u.)
20,TTGTCCGATGTGGCAGTTGAGTCAGCATGAGACCCACGTACGGAGTCACCTAGTGCAG,14200 fluorescence intensity (a.u.)
21,AGAAATAGATATAGGTGTTCTCAATCCGAAAATTCGGAACCGGAGTCACCTAGTGCAG,3720 fluorescence intensity (a.u.)
22,GAATTTACTTTAGCGGAGATTGAGCACTTTGTGGACCCAGCGGAGTCACCTAGTGCAG,52400 fluorescence intensity (a.u.)
23,GTTGCCTTCGTGTCCAGTGGATAGATAAGGATAGGATTTTCGGAGTCACCTAGTGCAG,65500 fluorescence intensity (a.u.)
24,TGGTGCTAGCTAGTGCTAGTGCCAGTGTCCAGTGGTGGTACGGAGTCACCTAGTGCAG,3290 fluorescence intensity (a.u.)
25,CAGCCCTTGAGCAGTTCTTGGTGGCTTCAGCCATCCAAACCGGAGTCACCTAGTGCAG,23400 fluorescence intensity (a.u.)
26,TACATTTTGGTGGAAATGAGTTACCTGTTGAGTGTACTAACGGAGTCACCTAGTGCAG,3510 fluorescence intensity (a.u.)
27,TGTGAGTAGTTTGTGGTTGGGAGTGTAACGGGTGGGGTGGCGGAGTCACCTAGTGCAG,4010 fluorescence intensity (a.u.)
